Laboratory results as given in PubChem BioAssay AID540256 (National Center for Advancing Translational Sciences (NCATS), 2011).
About 3,700 (1.2%) of roughly 300,000 compounds were called active. The inconclusive results got no clear call from the source; some entries with a clear call stand among them for comparison. The call rests on the fitted dose curve; tested in HEK293 cells. A potency beside an inconclusive call is a rough fit, not a confirmed value.

test: qHTS for Inhibitors of binding or entry into cells for Lassa Virus; settings: Lassa virus pseudotype entry inhibition, cell reporter; series mostly up to 37.9 µM; further: nearly all actives have a fitted effect of over 50% in size
Potency means the concentration at half of the fitted maximal effect.

SMILES	Potency
O=C1Nc2ccc(I)cc2C1=Cc1cc(Br)c(O)c(Br)c1	inconclusive: 0.0028 µM [activator, full curve, poor fit]
COc1ccc(N2C(=O)CSC23CCC(C(C)(C)C)CC3)cc1 (configuration not stated)	inconclusive: 18.3 µM [inhibitor, single point]
COc1ccc(CSc2nnnn2-c2ccc(O)cc2)cc1F	inconclusive: 1.26 µM [inhibitor, full curve, poor fit]
Cc1cnc(C(=O)N2CCCC(C(=O)c3ccc(C(C)(C)C)cc3)C2)cn1 (configuration not stated)	inconclusive: 35.5 µM [inhibitor, partial curve, poor fit]
CC(C)Sc1nc2c(c(=O)[nH]c(=O)n2C)n1CCc1ccccc1	inconclusive: 2.51 µM [inhibitor, full curve]
Fc1ccccc1-c1csc(-c2cccnc2)n1	inconclusive: 14.1 µM [activator, single point]
Cn1ccnc1SCC(=O)Nc1cccc(C(F)(F)F)c1	inactive
COC(=O)c1c(NC(=O)/C=C/C(=O)O)sc(C)c1-c1ccc(C(C)C)cc1	active: 5.62 µM
COc1cccc(/C=N/NC(=O)c2c(C)nc3ccc(Br)cn23)c1O	active: 5.17 µM
Cc1ccc(NC(=O)CSc2ncc(S(=O)(=O)c3ccccc3)c(=O)[nH]2)cc1C	inconclusive: 12.6 µM [activator, partial curve, poor fit]
Cc1cc(C)c(Cn2cnc3ccccc32)c(C)c1	inconclusive: 6.31 µM [inhibitor, partial curve, poor fit]
Cc1ccc([N+](=O)[O-])cc1S(=O)(=O)NCCc1c(C)[nH]c2ccccc12	inactive
CCN(CC)c1ccc(NC(=S)NC(=O)c2ccco2)cc1	inconclusive: 1.26 µM [activator, single point]
CCOC(=O)c1ccc(N2C(=O)c3n[nH]c(-c4ccco4)c3C2c2ccccc2OC)cc1 (configuration not stated)	inconclusive: 35.5 µM [inhibitor, single point]
Clc1ccc(OCCn2ccnc2)cc1Cl	inconclusive: 0.891 µM [activator, full curve, poor fit]
CCC(c1nnnn1Cc1ccco1)N(Cc1ccccc1OC)Cc1cc2cc(C)ccc2[nH]c1=O (configuration not stated)	inconclusive: 7.08 µM [inhibitor, full curve]
O=C(Nc1ccccc1N1CCCC1)c1ccc(F)c(S(=O)(=O)N2CCOCC2)c1	inconclusive: 0.282 µM [inhibitor, full curve, poor fit]
CN(Cc1ccccc1)C(=O)Nc1ccc2c(c1)N(C)C(=O)c1ccccc1S2	inconclusive: 2.24 µM [inhibitor, partial curve, poor fit]
NNC(=O)C(=O)/C=C1\NC2(CCCC2)Cc2ccccc21	inconclusive: 5.62 µM [activator, partial curve, poor fit]
CC1=CC(C)(C)N2C(=O)C(=O)c3cc(OC(=O)c4ccco4)cc1c32	inconclusive: 35.5 µM [inhibitor, single point]
Cc1ccc(CNCCNCCO)s1	inconclusive: 35.5 µM [inhibitor, single point]

Entries from the list above containing bromine:
SMILES	Potency
O=C1Nc2ccc(I)cc2C1=Cc1cc(Br)c(O)c(Br)c1	inconclusive: 0.0028 µM [activator, full curve, poor fit]
COc1cccc(/C=N/NC(=O)c2c(C)nc3ccc(Br)cn23)c1O	active: 5.17 µM

Next compounds follow:

SMILES	Potency
O=C(c1ccccn1)N1CCN(S(=O)(=O)c2ccccc2)CC1	inactive
CCOC(=O)N1CCN(C(=O)c2cc3c(-c4cccc(OC)c4)nn(C)c3s2)CC1	inconclusive: 8.91 µM [inhibitor, partial curve, poor fit]
CCC(C(=O)NCc1ccccc1)n1nc(C)c2sc3ccccc3c2c1=O (configuration not stated)	inactive
Cc1ccc(-c2nnc(Nc3cccc(O)c3)c3ccccc23)cc1S(=O)(=O)N1CCOCC1	inconclusive: 11.2 µM [inhibitor, partial curve, poor fit]
CCOC(=O)C1=C(C)N=c2s/c(=C3/C(=O)Nc4ccccc43)c(=O)n2C1c1ccc(C)cc1 (configuration not stated)	inactive
CCc1ccc(NC(=O)CCn2nc(-c3ccccc3OC)c3c(C)cc(C)nc32)cc1	inconclusive: 1.12 µM [inhibitor, full curve, poor fit]
Nc1ccc(C(=O)N/N=C/c2cn(Cc3ccccc3F)c3ccccc23)cc1	inconclusive: 11.2 µM [inhibitor, partial curve, poor fit]
CCC(C)(C)n1nnnc1C(c1ccc(OC)cc1)N1CCN(C(=O)c2ccco2)CC1 (configuration not stated)	inconclusive: 5.62 µM [inhibitor, single point]
Cc1cc(C)cc(NCc2cc3c(cc2[N+](=O)[O-])OCO3)c1	inactive
COc1ccc(CNC(=O)c2cc3cccc(O)c3oc2=N)cc1	inconclusive: 10 µM [inhibitor, partial curve]
COc1ccc(OCc2n[nH]c(=S)n2Cc2ccco2)cc1	inconclusive: 6.31 µM [inhibitor, partial curve, poor fit]
O=C(O)CSCC(=O)NCc1ccc(Cl)cc1	inconclusive: 35.5 µM [activator, single point]
COc1ccc(CCNc2nc(-c3sc(C)nc3C)cs2)cc1OC	inconclusive: 29.1 µM [inhibitor, partial curve, poor fit]
Cc1ccc(CSc2nnc(CCNC(=O)OC(C)(C)C)o2)cc1	inconclusive: 8.91 µM [inhibitor, partial curve, poor fit]
COc1ccccc1C(=O)NC(CCSC)C(=O)NCC(c1ccccc1OC)N1CCCC1 (configuration not stated)	inconclusive: 0.562 µM [inhibitor, partial curve, poor fit]
O=C(NCc1ccccc1Cl)c1ccc(CSCc2ccccc2Cl)o1	inactive
CC(N=Cc1nc(-c2ccccc2)oc1O)c1ccccc1 (configuration not stated)	inconclusive: 25.9 µM [inhibitor, partial curve]
COc1ccc(NC(=O)C2=C(C)Nc3nc(SCc4ccccc4C)nn3C2c2cc(OC)c(O)c(OC)c2)cc1 (configuration not stated)	inactive
Cc1cc(C)n(CCc2nc(-c3ccc(-c4ccccc4)cc3)cs2)n1	inactive
CC(=O)Nc1ccc2nc(NC(=O)COc3ccccc3C)sc2c1	inactive
CCc1ccc2[nH]c(C(=O)Nc3ccc(C)c(F)c3)cc2c1	inactive
